Measured values as given in the supplement of paper PMC3334620.
The full ranking holds about 33,000 sequences; the median of “E-score (-0.5 to 0.5)” is about -0.015, and the highest 2% start at about 0.3. This is one part of the list.

These sequences were tested against T1, Abf1 (UniProt P14164) (assay: PBM E-score (8-mer binding enrichment) (E-score (-0.5 to 0.5)); higher = stronger / more preferred TF binding). Settings: protein concentration: 200 nM; construct: GST-full length.
T1 sequence: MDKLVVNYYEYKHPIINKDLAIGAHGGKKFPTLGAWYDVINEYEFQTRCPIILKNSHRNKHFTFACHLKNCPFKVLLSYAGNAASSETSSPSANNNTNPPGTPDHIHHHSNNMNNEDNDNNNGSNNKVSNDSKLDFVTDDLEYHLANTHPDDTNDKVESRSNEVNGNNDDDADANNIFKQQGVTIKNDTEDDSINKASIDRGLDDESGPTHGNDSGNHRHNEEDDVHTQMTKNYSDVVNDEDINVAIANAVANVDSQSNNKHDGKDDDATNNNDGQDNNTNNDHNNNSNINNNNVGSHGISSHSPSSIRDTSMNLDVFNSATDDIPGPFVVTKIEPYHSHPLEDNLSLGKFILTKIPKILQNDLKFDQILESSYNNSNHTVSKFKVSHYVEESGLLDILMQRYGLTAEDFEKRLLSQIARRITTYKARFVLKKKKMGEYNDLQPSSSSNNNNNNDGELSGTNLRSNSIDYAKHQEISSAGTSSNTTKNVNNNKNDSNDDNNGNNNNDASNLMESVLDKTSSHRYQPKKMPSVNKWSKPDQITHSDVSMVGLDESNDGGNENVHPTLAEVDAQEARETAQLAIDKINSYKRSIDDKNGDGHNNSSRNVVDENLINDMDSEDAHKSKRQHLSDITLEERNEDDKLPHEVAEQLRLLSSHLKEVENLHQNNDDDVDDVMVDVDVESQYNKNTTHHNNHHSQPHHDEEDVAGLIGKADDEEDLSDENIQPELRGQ
In short: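 For each ungapped eight-base word taken together with its reverse complement, the Universal PBM Analysis Suite assigned an E-score. Binding data came from GST-tagged yeast transcription factors, applied at about 100-200 nM, on universal all-10-mer Agilent arrays made double-stranded by primer extension. Fluorescent anti-GST marked bound protein, and scans were normalised with masliner.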

First: AGGCTAAA
Second: CACCGTTA
The “PBM E-score” value of the first is lower: -0.111 for the first, 0.163 for the second.

Going from GGCGGGTA to AAGGATGT, the “PBM E-score” value rises from -0.179 to -0.00902.

Going from AGTTCATC to CAAAACAA, the “PBM E-score” value rises from -0.0817 to -0.055.

First: AGGCGCTA
Second: CCGCCCAC
The “PBM E-score” value of the first is higher: 0.0002 for the first, -0.207 for the second.

Going from CTTGCACC to ACGCACAG, the “PBM E-score” value rises from -0.216 to 0.0824.

Compared with CACTCATG, GACATTCC is higher in “PBM E-score” value: -0.00099 for the first, 0.0184 for the second.

Going from CGAGGATC to AAGGGCTA, the “PBM E-score” value falls from 0.101 to -0.0783.

Compared with GGGTGACC, CCTGGGAG is lower in “PBM E-score” value: 0.188 for the first, -0.28 for the second.

Compared with GCGATGCA, GAAGATCA is higher in “PBM E-score” value: -0.181 for the first, 0.191 for the second.

Going from AACGTTAC to AACTATAC, the “PBM E-score” value falls from 0.0595 to -0.0415.

First: CCAGGCTC
Second: GCCAGGTA
The “PBM E-score” value of the first is lower: -0.183 for the first, -0.00336 for the second.

First: AAGATCAC
Second: CCGGGTTC
The “PBM E-score” value of the first is higher: 0.325 for the first, -0.167 for the second.

Compared with GAGAGCCA, TATCCGAA is higher in “PBM E-score” value: -0.14 for the first, 0.0853 for the second.

Compared with ACCGACAT, GTCGCGAA is higher in “PBM E-score” value: 0.169 for the first, 0.188 for the second.

Compared with ACCAAACC, CGAACAGA is lower in “PBM E-score” value: 0.0479 for the first, -0.0195 for the second.

First: ATGTCCTG
Second: AAAATCAT
The “PBM E-score” value of the first is lower: -0.0816 for the first, 0.266 for the second.

Going from AATGGAGT to ACCTAGCT, the “PBM E-score” value falls from -0.0717 to -0.202.

Going from GACCACCA to AGGTCTTC, the “PBM E-score” value rises from -0.132 to -0.0691.

Going from GATCTTTA to ATTGGATG, the “PBM E-score” value rises from 0.095 to 0.122.

Compared with AAACCCGG, AATTTCTA is higher in “PBM E-score” value: -0.0208 for the first, 0.066 for the second.

Going from GTGCCCCA to GGGCGATA, the “PBM E-score” value rises from -0.19 to -0.15.

First: CAGATAAA
Second: TCAGACAA
The “PBM E-score” value of the first is higher: 0.0312 for the first, -0.23 for the second.

Going from AATCGCAG to CGGTCTGA, the “PBM E-score” value falls from 0.0804 to -0.0851.

Going from AATATCGG to GTTGCCAA, the “PBM E-score” value falls from 0.187 to -0.00135.

Compared with ATTAGTCA, AAGCAGCA is lower in “PBM E-score” value: 0.176 for the first, -0.303 for the second.

Compared with AGAAATGC, ACTATTAA is higher in “PBM E-score” value: -0.0121 for the first, 0.106 for the second.

Going from ATTCTGGA to CGAGGAAC, the “PBM E-score” value rises from 0.0133 to 0.108.

First: GGCCATTA
Second: ACGCGATA
The “PBM E-score” value of the first is lower: 0.00169 for the first, 0.262 for the second.

Going from CAGTTGGC to CACATACG, the “PBM E-score” value rises from -0.152 to 0.0892.

Compared with CGTGTACC, GTCTGGCA is lower in “PBM E-score” value: 0.159 for the first, -0.192 for the second.

First: AACTTAGG
Second: ACGATAGG
The “PBM E-score” value of the first is lower: -0.0107 for the first, 0.233 for the second.

Compared with AGAGTAAC, GACGTTAA is higher in “PBM E-score” value: -0.0184 for the first, 0.261 for the second.

Going from TCAACTAA to CCGAAAAA, the “PBM E-score” value rises from 0.0884 to 0.229.

Compared with CCATACAA, GTTCAGGA is lower in “PBM E-score” value: 0.0761 for the first, -0.0751 for the second.

First: AAAAATCA
Second: GGGTGCGA
The “PBM E-score” value of the first is higher: 0.219 for the first, -0.103 for the second.

Compared with TGTTCAAA, AGGTGTCA is lower in “PBM E-score” value: 0.0757 for the first, -0.0121 for the second.

First: CTTAGGAA
Second: GAGACGAC
The “PBM E-score” value of the first is lower: 0.0712 for the first, 0.103 for the second.

Compared with CAAATTAC, GCGTTAGC is higher in “PBM E-score” value: -0.0545 for the first, -0.0286 for the second.

Going from CACTTTCC to ACCCGAAG, the “PBM E-score” value falls from -0.0647 to -0.225.

Going from ACCGTAGT to TGTGTAAA, the “PBM E-score” value falls from 0.204 to 0.031.

Going from ATCATAGG to ATGAATTC, the “PBM E-score” value rises from -0.00462 to 0.0825.

Going from AAACCCAA to CAATCACA, the “PBM E-score” value falls from 0.141 to 0.0365.

First: AACAATCA
Second: ACCCGCGC
The “PBM E-score” value of the first is higher: 0.167 for the first, -0.0888 for the second.
